Paper PMC3239850

How the values were obtained:
Experiment in all cases: two-hybrid; direct interaction assays, ProQuest system (Invitrogen); Brachypodium NF-YC orthologs as Gal4 DBD fusions, Arabidopsis proteins as Gal4 AD fusions; X-Gal assay on nitrocellulose membranes
[1] = molecular target: Bradi1g32200 (Brachypodium NF-YC ortholog) (Brachypodium distachyon)
[2] = molecular target: Bradi3g05270 (Brachypodium NF-YC ortholog) (Brachypodium distachyon)
[3] = molecular target: Bradi1g67980 (Brachypodium NF-YC ortholog) (Brachypodium distachyon)

Measured: binding

B1: NUCLEAR FACTOR Y subunit B2 (protein, UniProt Q9FGJ3 1-190)
chain: MGDSDRDSGGGQNGNNQNGQSSLSPREQDRFLPIANVSRIMKKALPANAKISKDAKETMQECVSEFISFVTGEASDKCQKEKRKTINGDDLLWAMTTLGFEDYVEPLKVYLQRFREIEGERTGLGRPQTGGEVGEHQRDAVGDGGGFYGGGGGMQYHQHHQFLHQQNHMYGATGGGSDSGGGAASGRTRT
binds: all assays above

B2: NUCLEAR FACTOR Y subunit B3 (protein, UniProt O23310 1-161)
chain: MADSDNDSGGHKDGGNASTREQDRFLPIANVSRIMKKALPANAKISKDAKETVQECVSEFISFITGEASDKCQREKRKTINGDDLLWAMTTLGFEDYVEPLKVYLQKYREVEGEKTTTAGRQGDKEGGGGGGGAGSGSGGAPMYGGGMVTTMGHQFSHHFS
binds: all assays above

Results are given in words; binding and its absence hold for the method and conditions named. Binding calls can cover weak binding; strength is not graded here.
